The assay deals with Salmonella enterica serovar Typhimurium SL1344. The experiment in a line: bacterial growth OD600 after 18 h with compound and polymyxin B; higher = more bacterial growth (less inhibition). The following applies: 50 µM, Mueller-Hinton broth.

The results in this text go back to the supplement of paper PMC12889115.

SMILES strings stand for the structures. This is one part of the list. These are raw signals, not scaled to a control.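 First-pass screen: polymyxin B was added at a level that permeabilizes the Salmonella outer membrane while sparing the inner membrane. DMSO wells, with and without polymyxin B, defined maximum growth. Because plates differed from one another, each plate's data were ranked separately and the compounds with the lowest OD600 were carried forward as hits.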

In the case of `O=C(c1ncccc1O)N1CCC(C2CCN(Cc3cccc(F)c3F)CC2)C1` (centres undefined), where the note is “polymyxin B 0.75 µg/mL”, the “bacterial growth OD600” value was determined as 0.903.

For `CN(C)c1ncc2c(n1)CCCC2NC(=O)CCN1CCCCCC1=O` (centres undefined), the “bacterial growth OD600” value (polymyxin B 1 µg/mL) was 0.891.

Turning to `O=C(Nc1ccccc1Oc1cccnc1)C1CCCN1CC1CCCC1` (centres undefined), the “bacterial growth OD600” value (polymyxin B 0.75 µg/mL) was determined as 0.009.

Consider `CCOC(=O)C1(Cc2cccc(OC)c2)CCN(Cc2ccc(C)o2)CC1`, for which the “bacterial growth OD600” value (polymyxin B 1 µg/mL) was 0.937.

Regarding `COCCN(C(=O)c1csc2nc(-c3ccc(OC)c(F)c3)cn12)C(C)C`, the “bacterial growth OD600” value (polymyxin B 0.75 µg/mL) was determined as 0.793.

Turning to `COc1ccc(OC2CCN(C(=O)C3CC3)CC2)c(C(=O)N2CC[C@@H]3CCCC[C@H]3C2)c1`, the “bacterial growth OD600” value (polymyxin B 1 µg/mL) came out at 0.736.

For `COc1ccc(C(=O)NC2CC2)c(OC2CCN(Cc3nc4ccccc4n3C)CC2)c1`, the “bacterial growth OD600” value (polymyxin B 1 µg/mL) came to 0.945.

As for `Cn1cc(CN2CCCC2C(=O)Nc2ccc(-c3nc4ccccc4[nH]3)cc2)cn1` (centres undefined), the “bacterial growth OD600” value (polymyxin B 1 µg/mL) came to 1.01.

For the compound `COCc1ccc(C(=O)NCc2c(C)ncc3c2CCN(C(=O)c2cc4ccccc4[nH]2)C3)o1`, the “bacterial growth OD600” value (polymyxin B 0.75 µg/mL) is 0.833.

`O=C(NC1CC(=O)N(CCCc2ccccc2)C1)c1ccc2c(c1)OCO2` (centres undefined): the “bacterial growth OD600” value (polymyxin B 1 µg/mL) stood at 0.9.

For `CCC1(CCC(=O)NC(c2ccccc2)c2ccc(Cl)cc2)CCC(=O)N1` (centres undefined), under “polymyxin B 0.75 µg/mL”, the “bacterial growth OD600” value was determined as 0.791.

Consider `COc1cc(F)ccc1CN1CCC(n2nccc2NC(=O)CC(C)C)CC1`, for which the “bacterial growth OD600” value (polymyxin B 1 µg/mL) stood at 0.935.

Consider `CC1(C)CC(Nc2ccc(-c3nc(Cc4ccccc4)no3)cn2)CCO1` (centres undefined), for which the “bacterial growth OD600” value (polymyxin B 1 µg/mL) turned out to be 0.736.

For the compound `CN(CCC1CCCCO1)C(=O)CCc1nnc(Cc2c[nH]c3ccccc23)o1` (centres undefined), under “polymyxin B 1 µg/mL”, the “bacterial growth OD600” value was 0.876.

As to `Cn1ccnc1CNC(=O)CC(c1ccccc1)c1ccccc1F` (centres undefined), the “bacterial growth OD600” value (polymyxin B 0.75 µg/mL) was found to be 0.797.

Take `COc1ccc(CC(=O)N2CCOc3ccc(CN4CCN(Cc5ccccn5)CC4)cc3C2)cc1`: the “bacterial growth OD600” value (polymyxin B 0.75 µg/mL) amounted to 0.863.

On to `COc1ccc(F)c(CN2CCCC3(CCN(C(=O)C(C)(C)C)C3)C2=O)c1` (centres undefined), for which the “bacterial growth OD600” value (polymyxin B 1 µg/mL) came to 0.705.

In the case of `COc1cccc(CC(C2CCN(C(=O)Cc3csc(C)n3)CC2)N(C)C(=O)CC(C)C)c1` (centres undefined), the “bacterial growth OD600” value (polymyxin B 0.75 µg/mL) worked out at 0.792.

As for `CO[C@H]1[C@H](NC(=O)Cc2cccs2)c2ccccc2C12CCN(Cc1cccc(C)c1)CC2`, the “bacterial growth OD600” value (polymyxin B 0.75 µg/mL) was found to be 0.74.
